# Results from ChEMBL document CHEMBL3046439, “Spectroscopic characterization of novel d-amino acid-Schiff bases and their Cr(III) and Ni(II) complexes as antimicrobial agents” (2013).
# System: Candida albicans
# Assay: Antimicrobial activity against Candida albicans Y-1200-NIH assessed as diameter of growth inhibition zone at 100 ug after 24 hr by well-diffusion method
# Type: functional, organism-based
sequence,measurement,value
NYSTATIN,inhibition zone (IZ),20 mm
